Results are given in words; binding and its absence hold for the method and conditions named. In cells and extracts the contact can be indirect. Some binding calls cover weakened binding; strength is not graded here. Sequences can lack the tags named with a protein.
Target: T1, PDHA1-Flag (pyruvate dehydrogenase E1 alpha 1 subunit) (UniProt P08559)
T1 sequence: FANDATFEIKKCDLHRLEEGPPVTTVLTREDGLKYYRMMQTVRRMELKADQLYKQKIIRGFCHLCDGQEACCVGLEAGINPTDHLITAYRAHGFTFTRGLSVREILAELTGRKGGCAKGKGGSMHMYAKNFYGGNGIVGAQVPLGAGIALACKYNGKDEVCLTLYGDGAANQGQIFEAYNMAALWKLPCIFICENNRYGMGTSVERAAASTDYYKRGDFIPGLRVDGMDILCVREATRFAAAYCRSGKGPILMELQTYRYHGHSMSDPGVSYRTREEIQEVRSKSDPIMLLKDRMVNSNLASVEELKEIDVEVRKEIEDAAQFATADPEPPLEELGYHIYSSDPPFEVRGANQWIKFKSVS
Assay: co-IP; PDHA1-Flag and PDHB-myc co-expressed in HeLa or HEK293T cells; lysis in 0.5% NP-40 buffer; PDHA1 immuno-purified on Flag beads, washed three times with 0.1% NP-40 buffer; PDHB detected by myc western

B1: PDHB-myc (pyruvate dehydrogenase E1 beta subunit) (protein, UniProt P11177 31-359)
chain: LQVTVRDAINQGMDEELERDEKVFLLGEEVAQYDGAYKVSRGLWKKYGDKRIIDTPISEMGFAGIAVGAAMAGLRPICEFMTFNFSMQAIDQVINSAAKTYYMSGGLQPVPIVFRGPNGASAGVAAQHSQCFAAWYGHCPGLKVVSPWNSEDAKGLIKSAIRDNNPVVVLENELMYGVPFEFPPEAQSKDFLIPIGKAKIERQGTHITVVSHSRPVGHCLEAAAVLSKEGVECEVINMRTIRPMDMETIEASVMKTNHLVTVEGGWPQFGVGAEICARIMEGPAFNFLDAPAVRVTGADVPMPYAKILEDNSIPQVKDIIFAIKKTLNI
binding: binds

Reference: publication PMC5661613
